In patent US11617741B1, “Method for inhibiting growth of bacteria” (priority 2021, dated 2023):
At least one compound was matched to its structure with a doubt left.

Test system: PKZRSA1 (PKZ18-22-resistant MRSA)
Experiment: MICs against PKZ18-22-resistant mutant compared to WT MRSA
Assay type: cell-based, Staphylococcus aureus
Procedure: The 96-well plate was organized as follows. Media (100 μl) were added to all wells.

Question: For CN(C)[C@@H]1C(O)=C(C(N)=O)C(=O)[C@@]2(O)C(O)=C3C(=O)c4c(O)cccc4[C@@](C)(O)[C@H]3C[C@@H]12 [tetracycline], which “change in the MIC between WT and PKZRSA1” value is on record?
Answer: Its value is “no change”.
